{
  "source": "paper PMC6599804",
  "about": "“N^ɛ-acetyl lysine derivatives with zinc binding groups as novel HDAC inhibitors” (Royal Society Open Science, 2019)",
  "key": {"[1]": {"test_system": "HEK293", "experiment": "MTS cell proliferation assay, HEK293 (non-cancerous kidney cell)", "format": "cell-based", "conditions": "Homo sapiens, HEK293, 48 h, read-out: IC50 HEK293", "method": "(§1) Because of the great anti-tumour potential of HDAC inhibitors, we did the antiproliferative evaluation of 18c against K562 cells, A549 cells and HepG2 cells using MTS assay as previously described. […]\n(§2) The rate of cell survival under the action of test substances was evaluated by an improved MTS assay as previously described. In brief, A549 (5000 cells / well) , HepG2 (5000 cells / well), HEK293 (5000 cells / well) and K562 (1 ×10^4 cells/well) cell lines were seeded into 96-well plates in 100 µL medium. After overnight incubation, each well was added with different […]\n(§3) 48 hours 5ul of MTS reagent solution was added into each well and the cells were incubated for another 4 hours at 37℃ under 5% CO2 environment. The absorbance was measured at 490 nm in […]\n(§4) a Microplate to determine the cell viability. The absorbance was directly proportional to the number of viable cells. All experiments were done in triplicate. […]\n(§5) calculate and compare their selective index. […]\n(§6) Unbound antibodies"}, "[2]": {"test_system": "A549 cells", "experiment": "MTS cell proliferation assay, A549", "format": "cell-based", "conditions": "Homo sapiens, A549, 48 h, read-out: IC50 A549", "method": "as §1, §2, §3, §4, §5, §6"}, "[3]": {"test_system": "HepG2 cells", "experiment": "MTS cell proliferation assay, HepG2", "format": "cell-based", "conditions": "Homo sapiens, HepG2, 48 h, read-out: IC50 HepG2", "method": "as §1, §2, §3, §4, §5, §6"}, "[4]": {"test_system": "HDACⅡa", "experiment": "HDAC subtype selectivity assay with subtype substrate, HDACⅡa", "format": "biochemical, human", "conditions": "1μM; Hela nuclear extract; substrate of corresponding subtype", "source_text": "against both tumor cells and normal cells, then calculate and compare their selective index.” […]\nof Supporting Information.\nReponses to Reviewer 2’s comments\nReviewer 2 is also very positive about the manuscript. We thank the reviewer for the helpful comments and careful reading of the manuscript. Our changes and/or responses are detailed below.\nComment 1: “Should add some discussion about whether the synthesized compounds intend to be pan- or specific- HDAC inhibitors.”\nS1 of Supporting Information.\nComment 2: “ The cellular data is just described for the acetylation level of tubulin which is only relevant […]\nAnd then incubation at 37℃ for 1h, the mixture was stopped by the addition of 50 μL of Buffer B (200mM HCl/300 mM Acetic acid), fluorescence intensity was measured using a microplate reader at excitation and emission wavelengths of 360 nm and 460 nm. The inhibition ratios were calculated from the fluorescence intensity readings of tested wells relative to those of control wells, […]\nThe rate of cell survival under the action of test substances was evaluated by an improved MTS assay as previously described. […]\nas §3"}, "[5]": {"test_system": "K562 cells", "experiment": "MTS cell proliferation assay, K562", "format": "cell-based", "conditions": "Homo sapiens, K562, 48 h, read-out: IC50 K562", "method": "as §1, §2, §3, §4, §5, §6"}},
  "data": [
    {"smiles": "O=C(CCCCCCC(=O)Nc1ccccc1)NO", "note": "[SAHA (1), Vorinostat, reference compound]", "values": [
      {"measurement": "IC50", "setting": "[1]", "value": "6.09 ± 0.84", "unit": "µM"},
      {"measurement": "IC50", "setting": "[2]", "value": "17.8 ± 1.25", "unit": "µM"},
      {"measurement": "IC50", "setting": "[3]", "value": "4.23 ± 0.63", "unit": "µM"},
      {"measurement": "HDAC Inhibition (%) HDACⅡa", "setting": "[4]", "value": "15.51±3.084", "unit": "%"},
      {"measurement": "IC50", "setting": "[5]", "value": "4.58 ± 0.17", "unit": "µM"}
    ]}
  ]
}
